Data as given in PubChem BioAssay AID504764 (Drosophila RNAi Screening Center, 2011).
Test: 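Knock-downs that raise or lower a Notch target reporter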 (primary screen). Cell system: Drosophila Kc167 cells. Knock-down reagent: long dsRNA against Drosophila genes. Duration: about 5 days (4 days dsRNA, then 24 h after transfection). Treatment: transfection of constitutively active membrane-tethered Notch lacking the extracellular domain, read 24 h later. Measurement: 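Firefly luciferase from an E(spl)m3 reporter with active Notch, plus control-promoter and uninduced reporter wells for normalisation; unnormalised counts, duplicate wells a and b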. Reading the numbers: induced reporter light, run 1, well a and induced reporter light, run 1, well b: higher = more light from the Notch target reporter with active Notch; control promoter light, run 1, well a and control promoter light, run 1, well b: higher = more light from the viral control promoter (cell number, transfection, viability); uninduced reporter light, run 1, well a: higher = more light from the Notch target reporter without active Notch. Active means: 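Wells with low control signal or poorly matching duplicates excluded; duplicates averaged; per source plate, z beyond ±2 for induced/control log2 ratio or beyond ±1.8 for induced/uninduced marks a hit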. Meaning of the calls: active = modifier hit (raised or lowered Notch signal); inactive = not a hit.
The deposit covers about 22,000 reagents; this is a random part of those that have a named target and a result. In the full data, 403 (1.9%) got an active call. 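Unnormalised raw counts per well; ratio z-scores behind the hit calls and whether each hit raises or lowers signal are not deposited.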 The record does not give: the amount of reagent.

| predicted target | DRSC id | induced reporter light, run 1, well a | induced reporter light, run 1, well b | control promoter light, run 1, well a | control promoter light, run 1, well b | uninduced reporter light, run 1, well a | Call |
| --- | --- | --- | --- | --- | --- | --- | --- |
| Tango4 | DRSC19786 | 16850 | 13895 | 14485 | 11940 | 1185 | inactive |
| Pus7 | DRSC10703 | 1.71e5 | 1.75e5 | 2.22e5 | 1.91e5 | 8705 | inactive |
| CG4882 | DRSC04495 | 1.60e5 | 1.63e5 | 1.69e5 | 1.83e5 | 12935 | inactive |
| CG34168 | DRSC01938 | 1.23e5 | 1.41e5 | 1.22e5 | 1.50e5 | 10235 | inactive |
| nAChRbeta1 | DRSC08097 | 1.75e5 | 1.57e5 | 1.91e5 | 2.09e5 | 9332 | inactive |
| nAChRbeta1 | DRSC08728 | 1.98e5 | 1.44e5 | 1.48e5 | 77690 | 16185 | inactive |
| NKCC | DRSC12140 | 1.57e5 | 1.48e5 | 1.45e5 | 1.52e5 | 12095 | inactive |
| NKCC | DRSC12311 | 62610 | 78370 | 47690 | 46815 | 4925 | inactive |
| Srrm234 | DRSC07955 | 1.09e5 | 1.07e5 | 97730 | 95605 | 10085 | inactive |
| Srrm234 | DRSC08606 | 66035 | 74670 | 1.54e5 | 1.33e5 | 6340 | inactive |
| CG13229 | DRSC06349 | 64275 | 1.13e5 | 1.12e5 | 1.28e5 | 11140 | inactive |

Only “induced reporter light, run 1, well b”, for 3 of the entries above:
nAChRbeta1 [DRSC08097]	1.57e5
nAChRbeta1 [DRSC08728]	1.44e5
NKCC [DRSC12140]	1.48e5

Continued.
| predicted target | DRSC id | induced reporter light, run 1, well a | induced reporter light, run 1, well b | control promoter light, run 1, well a | control promoter light, run 1, well b | uninduced reporter light, run 1, well a | Call |
| --- | --- | --- | --- | --- | --- | --- | --- |
| Np | DRSC06089 | 1.64e5 | 1.59e5 | 2.29e5 | 2.47e5 | 16170 | inactive |
| Np | DRSC07094 | 2.14e5 | 1.83e5 | 1.87e5 | 1.84e5 | 16878 | inactive |
| Np | DRSC22421 | – | – | – | – | – | inactive |
| SCCRO4 | DRSC10671 | 92690 | 86290 | 99600 | 84760 | 5220 | inactive |
| CG17047 | DRSC06648 | 79385 | 96860 | 96830 | 1.14e5 | 7630 | inactive |
| FMRFaR | DRSC08555 | 1.46e5 | 1.14e5 | 2.10e5 | 1.09e5 | 9010 | inactive |
| Dif | DRSC03316 | 1.46e5 | 1.60e5 | 1.52e5 | 1.13e5 | 11460 | active |
| CG3792 | DRSC02725 | 1.35e5 | 1.19e5 | 1.21e5 | 1.33e5 | 8380 | inactive |
| Saf6 | DRSC00633 | 1.60e5 | 1.56e5 | 1.66e5 | 1.50e5 | 15520 | inactive |
